Results deposited as PubChem BioAssay AID504774 (Drosophila RNAi Screening Center, 2011)

- Purpose: 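Genes required for cells to withstand methyl methanesulphonate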 (primary screen)
- System: Drosophila Kc167 cells
- Knock-down reagent: long dsRNA against Drosophila genes, about 0.25 µg dsRNA per well
- Duration: about 6 days: 3 days knock-down, then 3 days with or without MMS
- Conditions: methyl methanesulphonate 0.004% (w/v) for 3 days after knock-down
- Detection: 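Viability in wells given MMS, read as ATP luminescence, normalised by quantiles plate by plate and averaged across replicates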
- Scale: mean viability with MMS: higher = more surviving cells after MMS
The screen tested about 23,000 reagents; below is an unselected part of those that have a named target and a result. 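Values are quantile-normalised luminescence on an arbitrary scale; higher means more cells surviving MMS.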 Further read-outs or replicates are left out here.

Target gene	amplicon	mean viability with MMS
CG4576	DRSC15604	3.50e6
CG32240	DRSC08093	3.53e6
CG33096	DRSC14440	3.40e6
Gr22d (retired record)	DRSC21653	3.54e6
Rca1	DRSC03407	3.15e6
Ctr9	DRSC08562	3.49e6
ACXE	DRSC00847	3.52e6
CG17350	DRSC02611	3.62e6
Lon	DRSC11049	3.46e6
Wbp2	DRSC09821	3.15e6

3 entries from above, ordered by “mean viability with MMS”, ascending:
Target gene	amplicon	mean viability with MMS
Wbp2	DRSC09821	3.15e6
Lon	DRSC11049	3.46e6
CG17350	DRSC02611	3.62e6

Additional entries follow.
Target gene	amplicon	mean viability with MMS
CG9686	DRSC18439	3.75e6
Orc1	DRSC07496	1.54e6
rtp	DRSC12132	3.46e6
ARY (retired record)	DRSC20867	2.49e6
CG15772	DRSC18078	3.45e6
Amun	DRSC19847	3.63e6
GlcT	DRSC04525	3.50e6
GstT3	DRSC20541	3.58e6
CG9427	DRSC16490	3.53e6
d4	DRSC04881	3.33e6
d4	DRSC22674	3.32e6
DEF8	DRSC09840	3.53e6
mRpL17	DRSC08350	3.55e6
svp	DRSC12899	3.59e6
svp	DRSC15311	2.56e6
svp	DRSC17075	3.72e6
CG6839	DRSC10723	3.48e6
CG14180 (retired record)	DRSC10179	3.22e6
